# Assay results as given in the supplement of paper PMC6414424.
# ± gives the standard deviation of the averaged measurements. Some of the results follow.
# System: APPdp1-6 iPSC-derived neurons
# Assay: pThr231Tau/total Tau ratio Z-score vs DMSO vehicle wells; higher = more pThr231Tau relative to total Tau
# Details: 5 µM; treatment time 5 days
row,Structure (SMILES),pThr231Tau/total Tau ratio Z-score
1,CC(C)NC[C@H](O)c1ccc(O)c(O)c1 [Prestw-1097],0.113 ± 1.2
2,CC(Oc1ccccc1)C(=O)N[C@@H]1C(=O)N2[C@@H]1SC(C)(C)[C@@H]2C(=O)O (some centres not stated) [Prestw-723],0.728 ± 0.27
3,"COc1ccc(-c2cc(C(F)F)nn2-c2ccc(S(N)(=O)=O)cc2)cc1F [DERACOXIB, antiinflammatory, antiarthritic, COX-2 inhibitor]",-0.536 ± 0.45
4,N[C@@H](C(=O)N[C@@H]1C(=O)N2C(C(=O)O)=C(Cl)CS[C@H]12)c1ccccc1 [Prestw-485],-0.312 ± 0.42
5,COc1ccc(C(=O)NCc2ccc(OCCN(C)C)cc2)cc1OC [Prestw-1295],-0.412 ± 0.93
6,O=C1c2ccccc2S(=O)(=O)N1CCCCN1CCN(c2ncccn2)CC1 [Prestw-1292],0.133 ± 0.74
7,NC(N)=O,2.41 ± 2.1
8,Cn1c([N+](=O)[O-])cnc1COC(N)=O [Prestw-1115],-0.0586 ± 1.9
9,CO[C@H]1C=CO[C@@]2(C)Oc3c(C)c(O)c4c(O)c(c5c(c4c3C2=O)=NC2(CCN(CC(C)C)CC2)N=5)NC(=O)C(C)=CC=C[C@H](C)[C@H](O)[C@@H](C)[C@@H](O)[C@@H](C)[C@H](OC(C)=O)[C@@H]1C [Prestw-1109],-1.08 ± 0.74
10,c1ccc2c(c1)CCCc1cc(NCCN3CCOCC3)nnc1-2 [Prestw-406],-0.52
11,Nc1cc(-c2ccncc2)c[nH]c1=O [Prestw-800],-0.812 ± 1.1
12,C[C@H]1C[C@@H]2[C@H]([C@@H](O)C[C@@]3(C)[C@H]2CC[C@]3(O)C(=O)COC(=O)CCC(=O)O)[C@@]2(C)C=CC(=O)C=C12,2.27 ± 1.9
13,Nc1c(Br)cc(Br)cc1CNC1CCC(O)CC1 (configuration not stated) [Prestw-366],0.0922 ± 0.14
14,CC(N)C12CC3CC(CC(C3)C1)C2 (configuration not stated) [Prestw-1331],-0.138 ± 0.033
15,CCCCc1ccc2nc(NC(=O)OC)[nH]c2c1 [Prestw-1110],-0.967 ± 4.3
16,CN(CCOc1ccc(CC2SC(=O)NC2=O)cc1)c1ccccn1 (configuration not stated) [Prestw-1337],-1.06 ± 0.13
17,CCC(=O)OCC(=O)[C@@]1(OC(=O)CC)[C@H](C)C[C@H]2[C@H]3[C@H]([C@@H](O)C[C@@]21C)[C@@]1(C)C=CC(=O)C=C1C[C@H]3Cl [Prestw-771],0.445 ± 0.98
18,O=C(OCc1ccccc1)c1ccccc1 [BENZYL BENZOATE    Therap cat: scabicide],0.416 ± 0.25
19,OC(CCN1CCCCC1)(c1ccccc1)C1CCCCC1 (configuration not stated) [Prestw-701],-0.806 ± 0.43
20,Cc1ccc2c(Cl)cc(Cl)c(O)c2n1,0.0156 ± 0.98
21,N=C(N)N/N=C/c1c(Cl)cccc1Cl [Prestw-96],1.19 ± 0.46
22,"CCCCCCCCCC(=O)N[C@H]1[C@H](Oc2c3cc4cc2Oc2ccc(cc2Cl)[C@@H](O[C@@H]2O[C@H](CO)[C@@H](O)[C@H](O)[C@H]2NC(C)=O)[C@@H]2NC(=O)[C@H](NC(=O)[C@@H]4NC(=O)[C@H]4NC(=O)[C@@H](Cc5ccc(c(Cl)c5)O3)NC(=O)[C@H](N)c3ccc(O)c(c3)Oc3cc(O)cc4c3)c3ccc(O)c(c3)-c3c(OC4O[C@H](CO)[C@@H](O)[C@H](O)[C@@H]4O)cc(O)cc3[C@@H](C(=O)O)NC2=O)O[C@H](CO)[C@@H](O)[C@@H]1O (some centres not stated) [TEICOPLANIN [A(2-1) shown], antibacterial]",1.56 ± 1.6

# Random excerpt: 2 compounds from above
row,Structure (SMILES),pThr231Tau/total Tau ratio Z-score
5,COc1ccc(C(=O)NCc2ccc(OCCN(C)C)cc2)cc1OC [Prestw-1295],-0.412 ± 0.93
19,OC(CCN1CCCCC1)(c1ccccc1)C1CCCCC1 (configuration not stated) [Prestw-701],-0.806 ± 0.43
